# Reference: patent US3978035A (Max-Planck-Gesellschaft zur Forderung der Wissenschaften …, priority 1973, dated 1976)
# Experiment: general procedure: solution-phase peptide synthesis; N,N'-dicyclohexylcarbodiimide/N-hydroxysuccinimide (also 1-hydroxybenzotriazole)
# Details: for isolated yield: whole synthesis
Substance,step yield (coupling step),step yield (late stage modification step),also measured
"Z-Arg-(δ,ω-Z2)-Asn-Lys-(BOC)-Gly-Gln-OtBu",80%,–,isolated yield (all stages on basis of H-Gln-OtBu (22b)): 55%
L-asparaginyl-Nε-tert.butyloxycarbonyl-L-lysyl-glycyl-L-glutamine- tert.butyl ester hydrochloride,–,97%,–
H-Arg-(HBr)-Asn-Lys-(BOC)-Gly-Gln-OtBu.HBr,–,98%,–
N-benzyloxycarbonyl-nonapeptide-tert.-butyl ester,84%,–,–
Cbz-E(OtBu)E(OtBu)K(Boc)E(OtBu)-OH,–,–,isolated yield (all stages on basis of H-Glu(OtBu)-OMe (17)): 48%
tert.butyloxycarbonyl-L-phenylalanyl-L-valyl-L-prolyl-L-isoleucyl-L-phenylalanine-N-hydroxysuccinimide ester,–,88%,–
Boc-FVPIF-OH,–,–,isolated yield (last three stages on basis of (4-5b)): 63%
Cbz-NK(Boc)GQ-OtBu,78%,–,–
H-Glu (OtBu)-Leu-Gln-Arg (HBr)-Nle-Glu (OtBu)-Glu-(OtBu)-Lys (BOC)-Glu (OtBu)-Arg (HBr)-Asn-Lys (BOC)-Gly-Gln-OtBu,–,94%,"step yield (coupling step, both stages): 77%"
H-Glu (OtBu)-Glu (OtBu)-Lys-(BOC)-Glu (OtBu)-Arg (HBr)-Asn-Lys (BOC)-Gly-Gln-OtBu,–,96%,–
"Z-Arg (δ,ω-Z2)-Nle-Glu (OtBu)-Glu (OtBu)-Lys-(BOC)-Glu (OtBu)-Arg (HBr)-Asn-Lys (BOC)-Gly-Gln-OtBu",85%,–,"step yield (coupling step, all three stages on basis of fragment I): about 69%"
BOC-Phe-Val-Pro-Ile-Phe-Thr (tBU)-Tyr (tBu)-Gly-OH,87%,–,–
H-Arg (HBr)-Nle-Glu-(OtBu)-Glu-Gln-OtBu (OtBu)-Lys (BOC)-Glu (OtBu)-Arg (HBr)-Ash-Lys-(BOC)-Gly-Gln-OtBu,–,95%,–

# The star is where a group is joined. Cbz = O=C(OCc1ccccc1)*; Boc = CC(C)(C)OC(=O)*; OtBu = CC(C)(C)O*
